# Measurements reported in the supplement of paper PMC6411743.
# By UniProt entry, the sequences of proteins in these tests, tags left out. Where a name states a change or a piece, a line headed by the entry shows the natural chain unless it says otherwise.
# UniProt Q9P0W2: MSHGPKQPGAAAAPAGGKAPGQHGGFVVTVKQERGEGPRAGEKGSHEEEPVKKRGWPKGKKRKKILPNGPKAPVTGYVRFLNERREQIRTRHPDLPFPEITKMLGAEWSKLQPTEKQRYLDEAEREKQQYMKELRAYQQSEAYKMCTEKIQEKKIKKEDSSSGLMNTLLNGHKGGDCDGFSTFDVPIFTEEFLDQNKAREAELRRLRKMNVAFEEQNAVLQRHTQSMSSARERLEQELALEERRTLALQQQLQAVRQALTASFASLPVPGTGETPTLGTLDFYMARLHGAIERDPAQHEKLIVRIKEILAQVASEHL
# UniProt Q9P1F3: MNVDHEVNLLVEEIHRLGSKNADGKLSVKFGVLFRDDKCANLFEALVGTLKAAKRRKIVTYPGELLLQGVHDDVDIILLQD
# UniProt Q9UBE0: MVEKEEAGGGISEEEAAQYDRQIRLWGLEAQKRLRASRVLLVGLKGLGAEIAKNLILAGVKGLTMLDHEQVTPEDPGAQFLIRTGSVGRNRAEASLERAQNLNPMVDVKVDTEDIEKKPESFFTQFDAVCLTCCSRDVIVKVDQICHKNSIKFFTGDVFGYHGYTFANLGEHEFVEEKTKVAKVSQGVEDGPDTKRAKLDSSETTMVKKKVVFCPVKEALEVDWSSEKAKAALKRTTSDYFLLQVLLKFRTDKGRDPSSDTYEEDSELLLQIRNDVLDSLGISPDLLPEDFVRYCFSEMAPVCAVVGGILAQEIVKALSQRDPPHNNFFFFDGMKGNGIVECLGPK
# UniProt Q9NZL9, whole entry: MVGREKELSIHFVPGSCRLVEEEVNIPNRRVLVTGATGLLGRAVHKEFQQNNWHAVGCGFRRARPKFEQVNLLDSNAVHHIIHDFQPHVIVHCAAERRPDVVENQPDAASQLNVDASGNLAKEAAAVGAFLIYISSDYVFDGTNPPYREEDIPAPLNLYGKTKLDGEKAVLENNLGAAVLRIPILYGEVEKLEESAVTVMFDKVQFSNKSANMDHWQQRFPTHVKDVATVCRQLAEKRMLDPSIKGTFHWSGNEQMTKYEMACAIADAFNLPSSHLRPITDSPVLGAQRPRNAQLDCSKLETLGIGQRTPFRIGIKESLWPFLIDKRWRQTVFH
# UniProt Q9NYM9: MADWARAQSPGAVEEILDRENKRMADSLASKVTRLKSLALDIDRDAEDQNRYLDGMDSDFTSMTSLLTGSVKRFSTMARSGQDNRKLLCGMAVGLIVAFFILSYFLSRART
# UniProt Q9NXH9: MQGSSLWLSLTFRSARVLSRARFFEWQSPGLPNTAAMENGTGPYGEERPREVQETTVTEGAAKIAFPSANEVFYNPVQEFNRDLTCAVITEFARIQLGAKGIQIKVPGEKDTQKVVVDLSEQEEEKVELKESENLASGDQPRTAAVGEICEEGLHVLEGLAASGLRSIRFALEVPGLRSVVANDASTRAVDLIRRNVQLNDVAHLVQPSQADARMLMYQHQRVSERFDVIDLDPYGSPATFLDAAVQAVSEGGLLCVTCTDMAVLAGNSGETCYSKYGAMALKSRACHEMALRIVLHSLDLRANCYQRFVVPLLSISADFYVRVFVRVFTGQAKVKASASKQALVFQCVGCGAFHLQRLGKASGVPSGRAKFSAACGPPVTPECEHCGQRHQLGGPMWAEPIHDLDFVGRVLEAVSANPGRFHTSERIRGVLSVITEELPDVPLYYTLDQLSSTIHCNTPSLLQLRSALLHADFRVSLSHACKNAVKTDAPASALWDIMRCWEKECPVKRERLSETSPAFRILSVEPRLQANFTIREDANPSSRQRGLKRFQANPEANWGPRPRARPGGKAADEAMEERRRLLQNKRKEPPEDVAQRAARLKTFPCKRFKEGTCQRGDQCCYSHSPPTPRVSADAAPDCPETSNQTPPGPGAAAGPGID
# UniProt Q9P2J9: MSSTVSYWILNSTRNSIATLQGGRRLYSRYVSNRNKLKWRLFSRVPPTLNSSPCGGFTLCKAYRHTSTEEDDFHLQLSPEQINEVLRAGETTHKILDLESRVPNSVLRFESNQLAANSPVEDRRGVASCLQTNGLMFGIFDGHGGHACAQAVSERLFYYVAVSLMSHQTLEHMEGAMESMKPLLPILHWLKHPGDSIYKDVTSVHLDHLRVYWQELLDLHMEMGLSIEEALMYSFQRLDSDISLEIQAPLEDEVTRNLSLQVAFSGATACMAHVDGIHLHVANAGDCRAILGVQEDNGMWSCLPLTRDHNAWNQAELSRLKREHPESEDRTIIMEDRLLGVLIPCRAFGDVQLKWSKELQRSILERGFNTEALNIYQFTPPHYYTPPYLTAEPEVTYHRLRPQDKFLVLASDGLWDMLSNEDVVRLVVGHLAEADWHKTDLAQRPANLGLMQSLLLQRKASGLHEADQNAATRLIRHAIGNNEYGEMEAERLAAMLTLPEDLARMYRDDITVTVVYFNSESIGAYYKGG
# UniProt Q9NWV4: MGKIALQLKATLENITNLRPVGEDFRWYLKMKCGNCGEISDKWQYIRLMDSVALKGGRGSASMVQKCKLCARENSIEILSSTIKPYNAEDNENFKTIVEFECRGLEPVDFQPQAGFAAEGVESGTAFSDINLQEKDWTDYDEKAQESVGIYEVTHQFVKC
# UniProt Q9NTJ3, whole entry: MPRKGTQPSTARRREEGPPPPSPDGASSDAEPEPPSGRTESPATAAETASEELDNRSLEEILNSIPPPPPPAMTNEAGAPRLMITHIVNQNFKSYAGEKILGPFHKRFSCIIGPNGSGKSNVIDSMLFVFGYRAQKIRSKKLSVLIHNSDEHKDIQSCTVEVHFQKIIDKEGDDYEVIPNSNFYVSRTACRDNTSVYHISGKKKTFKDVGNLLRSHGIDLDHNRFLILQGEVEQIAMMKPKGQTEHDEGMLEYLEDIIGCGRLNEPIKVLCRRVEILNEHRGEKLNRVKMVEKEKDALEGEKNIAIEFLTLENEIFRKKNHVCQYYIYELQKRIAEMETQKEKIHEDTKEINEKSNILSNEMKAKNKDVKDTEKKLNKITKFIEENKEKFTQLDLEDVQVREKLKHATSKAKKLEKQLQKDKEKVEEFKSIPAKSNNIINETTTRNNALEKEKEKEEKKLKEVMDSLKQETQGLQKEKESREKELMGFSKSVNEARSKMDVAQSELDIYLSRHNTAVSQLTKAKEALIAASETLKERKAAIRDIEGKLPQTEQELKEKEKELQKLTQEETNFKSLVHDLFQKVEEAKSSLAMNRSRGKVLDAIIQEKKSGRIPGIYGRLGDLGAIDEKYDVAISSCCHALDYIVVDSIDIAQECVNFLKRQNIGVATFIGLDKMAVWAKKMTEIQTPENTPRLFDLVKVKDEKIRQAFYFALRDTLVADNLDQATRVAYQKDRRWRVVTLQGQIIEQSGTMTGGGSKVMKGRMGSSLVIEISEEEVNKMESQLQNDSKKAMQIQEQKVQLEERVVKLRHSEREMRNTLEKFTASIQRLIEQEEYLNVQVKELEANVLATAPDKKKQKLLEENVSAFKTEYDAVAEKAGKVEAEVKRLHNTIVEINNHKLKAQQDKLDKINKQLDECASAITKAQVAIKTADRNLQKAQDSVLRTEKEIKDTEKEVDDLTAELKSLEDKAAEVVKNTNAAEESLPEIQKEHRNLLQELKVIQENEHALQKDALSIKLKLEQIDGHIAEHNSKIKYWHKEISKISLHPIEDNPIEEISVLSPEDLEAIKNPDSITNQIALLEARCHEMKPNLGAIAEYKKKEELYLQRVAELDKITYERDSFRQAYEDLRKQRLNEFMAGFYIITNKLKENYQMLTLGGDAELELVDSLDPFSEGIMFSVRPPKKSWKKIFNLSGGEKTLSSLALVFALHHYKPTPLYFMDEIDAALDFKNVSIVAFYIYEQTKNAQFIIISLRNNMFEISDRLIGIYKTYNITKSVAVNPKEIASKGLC
# UniProt Q9NVK5: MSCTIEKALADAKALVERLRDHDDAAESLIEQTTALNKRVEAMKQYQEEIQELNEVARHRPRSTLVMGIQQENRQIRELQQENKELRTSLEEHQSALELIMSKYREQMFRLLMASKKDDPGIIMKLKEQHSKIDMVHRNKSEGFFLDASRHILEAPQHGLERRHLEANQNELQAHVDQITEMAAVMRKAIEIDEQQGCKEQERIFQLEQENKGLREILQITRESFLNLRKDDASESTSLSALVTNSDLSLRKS
# UniProt Q9NQP4, whole entry: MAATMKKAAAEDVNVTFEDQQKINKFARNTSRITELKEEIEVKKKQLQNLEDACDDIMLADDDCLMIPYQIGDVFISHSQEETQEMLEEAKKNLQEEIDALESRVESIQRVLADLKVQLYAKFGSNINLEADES
# UniProt Q9NVH0: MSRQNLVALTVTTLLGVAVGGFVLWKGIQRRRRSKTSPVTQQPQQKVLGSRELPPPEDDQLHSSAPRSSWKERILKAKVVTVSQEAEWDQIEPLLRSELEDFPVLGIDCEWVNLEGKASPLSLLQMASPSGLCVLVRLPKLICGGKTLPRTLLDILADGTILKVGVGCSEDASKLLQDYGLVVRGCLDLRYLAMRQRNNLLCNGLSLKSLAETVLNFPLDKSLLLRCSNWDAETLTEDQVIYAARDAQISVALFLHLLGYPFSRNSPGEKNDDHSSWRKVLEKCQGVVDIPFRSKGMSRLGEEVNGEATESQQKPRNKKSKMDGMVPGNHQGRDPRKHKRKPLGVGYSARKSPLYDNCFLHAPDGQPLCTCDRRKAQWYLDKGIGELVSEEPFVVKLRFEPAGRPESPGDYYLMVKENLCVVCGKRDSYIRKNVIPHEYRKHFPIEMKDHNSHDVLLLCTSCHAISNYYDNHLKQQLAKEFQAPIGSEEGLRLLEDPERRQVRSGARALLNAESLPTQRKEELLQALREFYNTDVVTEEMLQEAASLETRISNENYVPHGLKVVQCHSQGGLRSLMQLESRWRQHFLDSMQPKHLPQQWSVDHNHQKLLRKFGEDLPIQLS
# UniProt Q9P253: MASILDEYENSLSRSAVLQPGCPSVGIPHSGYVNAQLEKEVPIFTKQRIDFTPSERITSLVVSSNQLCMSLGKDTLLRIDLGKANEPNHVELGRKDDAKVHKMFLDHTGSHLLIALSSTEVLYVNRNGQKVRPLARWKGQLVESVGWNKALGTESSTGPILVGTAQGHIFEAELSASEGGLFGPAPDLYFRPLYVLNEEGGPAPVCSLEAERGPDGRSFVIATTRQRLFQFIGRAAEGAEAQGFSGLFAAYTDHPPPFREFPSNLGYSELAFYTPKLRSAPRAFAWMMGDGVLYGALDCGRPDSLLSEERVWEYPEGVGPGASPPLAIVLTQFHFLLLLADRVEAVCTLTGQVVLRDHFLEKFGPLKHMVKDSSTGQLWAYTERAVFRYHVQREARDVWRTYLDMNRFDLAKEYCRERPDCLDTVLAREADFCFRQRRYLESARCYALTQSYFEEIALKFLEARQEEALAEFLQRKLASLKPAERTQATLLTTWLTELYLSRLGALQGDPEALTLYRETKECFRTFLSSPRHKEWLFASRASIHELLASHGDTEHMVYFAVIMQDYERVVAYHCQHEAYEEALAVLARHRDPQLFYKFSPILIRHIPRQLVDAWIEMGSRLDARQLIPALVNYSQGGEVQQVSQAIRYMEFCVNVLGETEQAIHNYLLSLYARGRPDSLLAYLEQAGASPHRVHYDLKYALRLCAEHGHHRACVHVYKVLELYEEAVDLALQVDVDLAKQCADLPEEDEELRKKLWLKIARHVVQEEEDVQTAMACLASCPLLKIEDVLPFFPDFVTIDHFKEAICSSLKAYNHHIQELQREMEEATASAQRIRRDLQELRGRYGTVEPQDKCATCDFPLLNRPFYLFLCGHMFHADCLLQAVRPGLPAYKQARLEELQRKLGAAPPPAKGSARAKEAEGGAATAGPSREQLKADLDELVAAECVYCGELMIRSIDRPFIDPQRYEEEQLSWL
# UniProt Q9NVR0: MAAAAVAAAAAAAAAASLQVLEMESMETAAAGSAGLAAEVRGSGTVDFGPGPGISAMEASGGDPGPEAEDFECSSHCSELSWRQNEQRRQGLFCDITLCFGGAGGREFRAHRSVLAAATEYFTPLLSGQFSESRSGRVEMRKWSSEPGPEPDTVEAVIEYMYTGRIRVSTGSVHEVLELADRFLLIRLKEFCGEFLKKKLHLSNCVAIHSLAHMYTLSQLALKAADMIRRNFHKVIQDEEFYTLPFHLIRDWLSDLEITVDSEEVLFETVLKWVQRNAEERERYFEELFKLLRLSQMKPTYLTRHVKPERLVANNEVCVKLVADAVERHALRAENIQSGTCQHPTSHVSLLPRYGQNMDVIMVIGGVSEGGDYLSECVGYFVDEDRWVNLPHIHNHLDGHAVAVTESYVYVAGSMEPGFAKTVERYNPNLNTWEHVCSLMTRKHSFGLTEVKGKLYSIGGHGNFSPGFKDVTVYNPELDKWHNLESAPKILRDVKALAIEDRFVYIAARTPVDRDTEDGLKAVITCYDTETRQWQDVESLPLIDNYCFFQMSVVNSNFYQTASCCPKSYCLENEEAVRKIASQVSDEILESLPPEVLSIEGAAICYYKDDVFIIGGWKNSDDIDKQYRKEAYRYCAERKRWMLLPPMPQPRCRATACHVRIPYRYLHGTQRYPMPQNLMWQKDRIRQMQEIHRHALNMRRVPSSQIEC
# ± gives the standard deviation of the averaged measurements. The list shows a part of the results, in another mix than the full data.
# Compound: Nc1ncnc2c1ncn2[C@@H]1O[C@H](COP(=O)(O)OP(=O)(O)NP(=O)(O)O)[C@@H](O)[C@H]1O [adenylyl imidodiphosphate]
# Assay: NP40-soluble protein abundance relative to vehicle (solubility fold change) (ratio); higher = more soluble protein in presence of AMP-PNP
# Summary of the method: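 Jurkat crude lysate prepared with a Dounce homogeniser was treated at eight concentrations spanning 0.1 to 10 mM, 10 min at room temperature then 3 min at 37 °C. Solubilisation with 0.8% NP40 and benzonase and ultracentrifugation preceded TMT labelling of the supernatant for LC-MS/MS. Fold change against the detergent-processed vehicle was determined per replicate from vsn-normalised intensities, across three independent experiments.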
Target,NP40-soluble protein abundance (concentration: 1mM),NP40-soluble protein abundance (concentration: 2mM),NP40-soluble protein abundance (concentration: 4mM),NP40-soluble protein abundance (concentration: 6mM),NP40-soluble protein abundance (concentration: 8mM),NP40-soluble protein abundance (concentration: 10mM)
CHD7 (UniProt Q9P2D1),1.01 ± 0.028,1.03 ± 0.025,0.991 ± 0.011,0.953 ± 0.021,0.958 ± 0.036,0.96 ± 0.034
FAM120C (UniProt Q9NX05),1.01 ± 0.047,1.02 ± 0.046,1.01 ± 0.061,1 ± 0.076,1.02 ± 0.08,1.03 ± 0.06
UniProt Q9P0W2 and related entries,0.947 ± 0.025,0.99 ± 0.033,0.962 ± 0.03,0.965 ± 0.03,0.955 ± 0.033,0.9461 ± 0.0086
UniProt Q9P1F3,0.954 ± 0.025,1.03 ± 0.093,0.978 ± 0.025,0.975 ± 0.032,1.01 ± 0.014,0.983 ± 0.062
UniProt Q9P0L0 and related entries,1.05 ± 0.015,1.09 ± 0.056,1.03 ± 0.045,1 ± 0.025,0.993 ± 0.034,1.01 ± 0.055
KIF13B (UniProt Q9NQT8),0.994 ± 0.024,0.99038 ± 0.00094,1 ± 0.023,0.971 ± 0.025,0.9428 ± 0.0089,0.977 ± 0.013
CTTNBP2NL (UniProt Q9P2B4),1.02 ± 0.028,1.04 ± 0.038,1 ± 0.04,1 ± 0.022,0.972 ± 0.037,0.965 ± 0.0092
UniProt Q9NX14 and related entries,1.1 ± 0.021,1.02 ± 0.032,0.963 ± 0.016,0.963 ± 0.045,0.928 ± 0.026,0.923 ± 0.019
SAE1 (UniProt Q9UBE0),1.009 ± 0.0077,0.981 ± 0.029,0.9643 ± 0.0042,0.991 ± 0.033,0.983 ± 0.044,0.982 ± 0.057
UniProt Q9NZL9 and related entries,1.05 ± 0.022,0.961 ± 0.023,0.9806 ± 0.0017,0.962 ± 0.02,0.972 ± 0.038,0.936 ± 0.022
UniProt Q9NYM9 and related entries,1.01 ± 0.022,1.08 ± 0.071,0.997 ± 0.039,0.996 ± 0.037,0.965 ± 0.017,0.968 ± 0.017
UniProt Q9P0K8 and related entries,0.966 ± 0.05,1 ± 0.038,0.956 ± 0.031,0.973 ± 0.044,0.962 ± 0.039,0.959 ± 0.033
COMMD8 (UniProt Q9NX08),0.947 ± 0.02,0.955 ± 0.05,0.964 ± 0.03,0.943 ± 0.042,0.964 ± 0.03,0.892 ± 0.013
UniProt Q9NZQ3 and related entries,1.04 ± 0.066,0.9853 ± 0.0064,1.03 ± 0.045,0.984 ± 0.029,1.02 ± 0.047,0.99 ± 0.014
UniProt Q9NXH9 and related entries,0.992 ± 0.012,0.995 ± 0.02,1.01 ± 0.024,0.959 ± 0.03,0.9583 ± 0.0056,0.958 ± 0.027
ZNF219 (UniProt Q9P2Y4),1 ± 0.03,1.02 ± 0.037,1.02 ± 0.033,1.01 ± 0.037,1 ± 0.0062,1 ± 0.019
PDLIM7 (UniProt Q9NR12),0.989 ± 0.035,0.997 ± 0.032,0.995 ± 0.01,0.994 ± 0.03,0.971 ± 0.019,0.986 ± 0.038
PDP2 (UniProt Q9P2J9),0.99 ± 0.049,0.971 ± 0.021,0.947 ± 0.046,0.968 ± 0.01,0.964 ± 0.02,0.956 ± 0.024
UniProt Q9P275 and related entries,1.05 ± 0.011,1.07 ± 0.035,1.14 ± 0.08,1.18 ± 0.11,1.22 ± 0.088,1.29 ± 0.096
UniProt Q9NWV4,0.99 ± 0.02,1.03 ± 0.066,1.01 ± 0.066,1.13 ± 0.14,1.09 ± 0.097,1.14 ± 0.1
SMC4 (UniProt Q9NTJ3),1.01 ± 0.015,1.03 ± 0.046,0.9777 ± 0.0039,0.98 ± 0.032,0.952 ± 0.022,0.973 ± 0.034
POGK (UniProt Q9P215),0.988 ± 0.041,0.978 ± 0.035,0.969 ± 0.064,0.966 ± 0.035,0.966 ± 0.062,0.959 ± 0.035
UniProt Q9P1Z2 and related entries,1.02 ± 0.052,1.04 ± 0.025,1.07 ± 0.013,1.03 ± 0.044,0.992 ± 0.012,0.998 ± 0.015
UniProt Q9NVK5 and related entries,0.955 ± 0.02,1.02 ± 0.033,0.962 ± 0.0099,0.944 ± 0.012,0.956 ± 0.046,0.9541 ± 0.0067
PFDN4 (UniProt Q9NQP4),1.01 ± 0.024,1.01 ± 0.029,0.98 ± 0.023,0.924 ± 0.065,0.893 ± 0.043,0.911 ± 0.049
UniProt Q9NVH0 and related entries,0.999 ± 0.034,1.03 ± 0.04,1.01 ± 0.035,0.977 ± 0.031,0.965 ± 0.024,0.957 ± 0.024
VPS18 (UniProt Q9P253),0.9921 ± 0.0055,0.927 ± 0.067,0.973 ± 0.011,0.949 ± 0.034,0.928 ± 0.0094,0.931 ± 0.039
KLHL11 (UniProt Q9NVR0),0.965 ± 0.019,0.942 ± 0.052,0.969 ± 0.045,0.921 ± 0.034,0.94 ± 0.022,0.932 ± 0.043
UniProt Q9NVX2 and related entries,0.98 ± 0.053,0.901 ± 0.058,0.962 ± 0.031,0.969 ± 0.065,0.994 ± 0.034,0.964 ± 0.04
UniProt Q9NZM5,1 ± 0.027,1.05 ± 0.047,1.05 ± 0.038,1.03 ± 0.05,1.04 ± 0.02,1.09 ± 0.044

# Record cards (already shown). Order of values: NP40-soluble protein abundance (concentration: 1mM) | NP40-soluble protein abundance (concentration: 2mM) | NP40-soluble protein abundance (concentration: 4mM) | NP40-soluble protein abundance (concentration: 6mM) | NP40-soluble protein abundance (concentration: 8mM) | NP40-soluble protein abundance (concentration: 10mM)
# ZNF219 (UniProt Q9P2Y4) reads 1 ± 0.03 | 1.02 ± 0.037 | 1.02 ± 0.033 | 1.01 ± 0.037 | 1 ± 0.0062 | 1 ± 0.019
# UniProt Q9NVK5 and related entries reads 0.955 ± 0.02 | 1.02 ± 0.033 | 0.962 ± 0.0099 | 0.944 ± 0.012 | 0.956 ± 0.046 | 0.9541 ± 0.0067
